Measurements published in the supplement of paper PMC11006884.
The entries are a selection whose mix differs from that of the whole data set.

Chains of the proteins cited; added tags and fusions are not shown. Lines headed by an entry give the natural chain unless they say otherwise; changes in a name come on top.
UniProt P07437, whole entry, looked up: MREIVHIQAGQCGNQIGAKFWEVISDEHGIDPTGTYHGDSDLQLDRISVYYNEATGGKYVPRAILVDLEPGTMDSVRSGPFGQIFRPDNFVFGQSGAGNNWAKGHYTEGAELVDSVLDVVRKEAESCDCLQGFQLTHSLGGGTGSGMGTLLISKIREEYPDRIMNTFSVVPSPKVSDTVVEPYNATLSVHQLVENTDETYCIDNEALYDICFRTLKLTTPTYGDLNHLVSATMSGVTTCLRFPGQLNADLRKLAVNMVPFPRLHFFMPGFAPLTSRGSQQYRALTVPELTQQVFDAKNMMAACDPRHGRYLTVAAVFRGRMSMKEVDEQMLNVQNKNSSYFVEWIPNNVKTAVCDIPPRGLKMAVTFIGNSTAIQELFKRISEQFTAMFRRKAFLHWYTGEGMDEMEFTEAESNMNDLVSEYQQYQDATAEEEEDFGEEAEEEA
UniProt O94906: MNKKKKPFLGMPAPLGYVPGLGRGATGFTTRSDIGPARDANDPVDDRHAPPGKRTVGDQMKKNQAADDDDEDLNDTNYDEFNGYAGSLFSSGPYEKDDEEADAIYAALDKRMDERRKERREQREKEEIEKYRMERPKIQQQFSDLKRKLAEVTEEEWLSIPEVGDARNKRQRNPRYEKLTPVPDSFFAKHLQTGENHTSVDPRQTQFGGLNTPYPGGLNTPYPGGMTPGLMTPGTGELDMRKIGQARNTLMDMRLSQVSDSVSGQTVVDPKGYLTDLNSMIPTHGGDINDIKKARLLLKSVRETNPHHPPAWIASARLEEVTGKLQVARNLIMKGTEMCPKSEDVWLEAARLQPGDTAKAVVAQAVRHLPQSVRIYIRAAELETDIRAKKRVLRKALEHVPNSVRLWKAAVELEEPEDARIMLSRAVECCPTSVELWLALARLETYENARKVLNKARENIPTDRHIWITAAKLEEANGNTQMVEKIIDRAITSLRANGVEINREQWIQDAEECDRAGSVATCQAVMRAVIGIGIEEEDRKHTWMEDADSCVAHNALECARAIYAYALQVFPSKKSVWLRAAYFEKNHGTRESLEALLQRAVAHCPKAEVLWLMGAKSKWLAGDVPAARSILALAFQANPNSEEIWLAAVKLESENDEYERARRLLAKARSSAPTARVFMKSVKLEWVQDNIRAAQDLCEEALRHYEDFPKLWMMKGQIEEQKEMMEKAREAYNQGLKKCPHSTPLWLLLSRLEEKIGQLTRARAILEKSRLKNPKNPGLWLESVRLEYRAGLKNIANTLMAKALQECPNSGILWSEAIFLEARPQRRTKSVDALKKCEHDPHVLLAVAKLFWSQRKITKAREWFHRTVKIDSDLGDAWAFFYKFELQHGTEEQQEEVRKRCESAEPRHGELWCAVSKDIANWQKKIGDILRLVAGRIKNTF
UniProt P01106: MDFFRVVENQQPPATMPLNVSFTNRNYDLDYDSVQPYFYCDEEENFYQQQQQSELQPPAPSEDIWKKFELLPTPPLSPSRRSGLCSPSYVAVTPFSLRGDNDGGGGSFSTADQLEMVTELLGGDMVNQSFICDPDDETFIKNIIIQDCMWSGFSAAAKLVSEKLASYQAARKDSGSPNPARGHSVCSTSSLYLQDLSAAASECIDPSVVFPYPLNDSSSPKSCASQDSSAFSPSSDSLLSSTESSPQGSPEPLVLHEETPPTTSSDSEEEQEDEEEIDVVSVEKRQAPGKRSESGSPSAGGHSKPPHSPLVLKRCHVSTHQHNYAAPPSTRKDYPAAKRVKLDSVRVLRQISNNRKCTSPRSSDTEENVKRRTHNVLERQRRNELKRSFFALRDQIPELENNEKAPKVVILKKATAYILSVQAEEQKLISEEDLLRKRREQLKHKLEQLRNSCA
UniProt O96013: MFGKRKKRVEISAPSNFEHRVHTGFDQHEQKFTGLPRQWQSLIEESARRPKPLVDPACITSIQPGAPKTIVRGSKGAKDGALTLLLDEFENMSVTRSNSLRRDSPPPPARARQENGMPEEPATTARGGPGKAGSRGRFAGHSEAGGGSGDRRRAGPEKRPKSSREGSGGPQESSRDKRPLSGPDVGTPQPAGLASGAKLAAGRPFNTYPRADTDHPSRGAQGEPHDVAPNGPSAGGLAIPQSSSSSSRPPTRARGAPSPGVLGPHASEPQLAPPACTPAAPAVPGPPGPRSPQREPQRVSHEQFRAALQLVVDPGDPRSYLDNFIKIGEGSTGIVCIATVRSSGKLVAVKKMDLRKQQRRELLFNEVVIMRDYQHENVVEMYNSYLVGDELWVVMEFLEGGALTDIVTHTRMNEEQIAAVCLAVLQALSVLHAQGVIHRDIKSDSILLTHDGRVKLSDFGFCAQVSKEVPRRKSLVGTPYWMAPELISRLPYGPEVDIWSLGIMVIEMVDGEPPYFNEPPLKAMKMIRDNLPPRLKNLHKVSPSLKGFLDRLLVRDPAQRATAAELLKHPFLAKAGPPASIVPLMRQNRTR
UniProt O94763, whole entry, looked up: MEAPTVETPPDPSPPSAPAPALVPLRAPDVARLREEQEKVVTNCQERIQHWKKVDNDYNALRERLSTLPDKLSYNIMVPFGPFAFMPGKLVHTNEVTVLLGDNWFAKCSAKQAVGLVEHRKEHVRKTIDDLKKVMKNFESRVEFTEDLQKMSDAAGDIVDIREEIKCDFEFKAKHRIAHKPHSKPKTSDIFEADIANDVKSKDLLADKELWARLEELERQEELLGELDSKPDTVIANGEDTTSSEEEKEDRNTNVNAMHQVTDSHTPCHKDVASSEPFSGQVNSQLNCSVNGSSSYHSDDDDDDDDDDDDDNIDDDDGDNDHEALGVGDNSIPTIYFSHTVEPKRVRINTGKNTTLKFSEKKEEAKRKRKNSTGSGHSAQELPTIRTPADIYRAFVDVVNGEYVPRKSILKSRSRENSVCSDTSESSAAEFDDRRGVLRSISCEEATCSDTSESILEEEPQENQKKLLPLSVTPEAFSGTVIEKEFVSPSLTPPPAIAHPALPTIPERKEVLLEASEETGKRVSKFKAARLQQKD
UniProt P02545: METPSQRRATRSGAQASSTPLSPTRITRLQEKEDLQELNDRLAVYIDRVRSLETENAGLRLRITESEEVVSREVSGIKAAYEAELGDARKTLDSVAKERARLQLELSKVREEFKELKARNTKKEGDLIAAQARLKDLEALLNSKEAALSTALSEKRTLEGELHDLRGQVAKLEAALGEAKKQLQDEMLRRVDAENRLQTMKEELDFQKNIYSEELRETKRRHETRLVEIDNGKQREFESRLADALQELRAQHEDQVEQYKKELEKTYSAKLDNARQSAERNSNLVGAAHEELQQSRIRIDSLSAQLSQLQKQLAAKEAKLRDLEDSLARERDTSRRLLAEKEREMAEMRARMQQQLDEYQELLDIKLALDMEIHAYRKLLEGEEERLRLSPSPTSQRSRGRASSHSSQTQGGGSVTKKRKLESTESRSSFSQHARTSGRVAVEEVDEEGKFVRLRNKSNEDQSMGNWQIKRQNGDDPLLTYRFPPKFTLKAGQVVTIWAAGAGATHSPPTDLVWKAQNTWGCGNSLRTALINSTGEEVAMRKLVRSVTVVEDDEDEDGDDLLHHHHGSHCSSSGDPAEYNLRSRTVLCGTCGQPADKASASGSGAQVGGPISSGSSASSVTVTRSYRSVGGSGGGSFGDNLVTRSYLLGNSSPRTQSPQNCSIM
UniProt O95071: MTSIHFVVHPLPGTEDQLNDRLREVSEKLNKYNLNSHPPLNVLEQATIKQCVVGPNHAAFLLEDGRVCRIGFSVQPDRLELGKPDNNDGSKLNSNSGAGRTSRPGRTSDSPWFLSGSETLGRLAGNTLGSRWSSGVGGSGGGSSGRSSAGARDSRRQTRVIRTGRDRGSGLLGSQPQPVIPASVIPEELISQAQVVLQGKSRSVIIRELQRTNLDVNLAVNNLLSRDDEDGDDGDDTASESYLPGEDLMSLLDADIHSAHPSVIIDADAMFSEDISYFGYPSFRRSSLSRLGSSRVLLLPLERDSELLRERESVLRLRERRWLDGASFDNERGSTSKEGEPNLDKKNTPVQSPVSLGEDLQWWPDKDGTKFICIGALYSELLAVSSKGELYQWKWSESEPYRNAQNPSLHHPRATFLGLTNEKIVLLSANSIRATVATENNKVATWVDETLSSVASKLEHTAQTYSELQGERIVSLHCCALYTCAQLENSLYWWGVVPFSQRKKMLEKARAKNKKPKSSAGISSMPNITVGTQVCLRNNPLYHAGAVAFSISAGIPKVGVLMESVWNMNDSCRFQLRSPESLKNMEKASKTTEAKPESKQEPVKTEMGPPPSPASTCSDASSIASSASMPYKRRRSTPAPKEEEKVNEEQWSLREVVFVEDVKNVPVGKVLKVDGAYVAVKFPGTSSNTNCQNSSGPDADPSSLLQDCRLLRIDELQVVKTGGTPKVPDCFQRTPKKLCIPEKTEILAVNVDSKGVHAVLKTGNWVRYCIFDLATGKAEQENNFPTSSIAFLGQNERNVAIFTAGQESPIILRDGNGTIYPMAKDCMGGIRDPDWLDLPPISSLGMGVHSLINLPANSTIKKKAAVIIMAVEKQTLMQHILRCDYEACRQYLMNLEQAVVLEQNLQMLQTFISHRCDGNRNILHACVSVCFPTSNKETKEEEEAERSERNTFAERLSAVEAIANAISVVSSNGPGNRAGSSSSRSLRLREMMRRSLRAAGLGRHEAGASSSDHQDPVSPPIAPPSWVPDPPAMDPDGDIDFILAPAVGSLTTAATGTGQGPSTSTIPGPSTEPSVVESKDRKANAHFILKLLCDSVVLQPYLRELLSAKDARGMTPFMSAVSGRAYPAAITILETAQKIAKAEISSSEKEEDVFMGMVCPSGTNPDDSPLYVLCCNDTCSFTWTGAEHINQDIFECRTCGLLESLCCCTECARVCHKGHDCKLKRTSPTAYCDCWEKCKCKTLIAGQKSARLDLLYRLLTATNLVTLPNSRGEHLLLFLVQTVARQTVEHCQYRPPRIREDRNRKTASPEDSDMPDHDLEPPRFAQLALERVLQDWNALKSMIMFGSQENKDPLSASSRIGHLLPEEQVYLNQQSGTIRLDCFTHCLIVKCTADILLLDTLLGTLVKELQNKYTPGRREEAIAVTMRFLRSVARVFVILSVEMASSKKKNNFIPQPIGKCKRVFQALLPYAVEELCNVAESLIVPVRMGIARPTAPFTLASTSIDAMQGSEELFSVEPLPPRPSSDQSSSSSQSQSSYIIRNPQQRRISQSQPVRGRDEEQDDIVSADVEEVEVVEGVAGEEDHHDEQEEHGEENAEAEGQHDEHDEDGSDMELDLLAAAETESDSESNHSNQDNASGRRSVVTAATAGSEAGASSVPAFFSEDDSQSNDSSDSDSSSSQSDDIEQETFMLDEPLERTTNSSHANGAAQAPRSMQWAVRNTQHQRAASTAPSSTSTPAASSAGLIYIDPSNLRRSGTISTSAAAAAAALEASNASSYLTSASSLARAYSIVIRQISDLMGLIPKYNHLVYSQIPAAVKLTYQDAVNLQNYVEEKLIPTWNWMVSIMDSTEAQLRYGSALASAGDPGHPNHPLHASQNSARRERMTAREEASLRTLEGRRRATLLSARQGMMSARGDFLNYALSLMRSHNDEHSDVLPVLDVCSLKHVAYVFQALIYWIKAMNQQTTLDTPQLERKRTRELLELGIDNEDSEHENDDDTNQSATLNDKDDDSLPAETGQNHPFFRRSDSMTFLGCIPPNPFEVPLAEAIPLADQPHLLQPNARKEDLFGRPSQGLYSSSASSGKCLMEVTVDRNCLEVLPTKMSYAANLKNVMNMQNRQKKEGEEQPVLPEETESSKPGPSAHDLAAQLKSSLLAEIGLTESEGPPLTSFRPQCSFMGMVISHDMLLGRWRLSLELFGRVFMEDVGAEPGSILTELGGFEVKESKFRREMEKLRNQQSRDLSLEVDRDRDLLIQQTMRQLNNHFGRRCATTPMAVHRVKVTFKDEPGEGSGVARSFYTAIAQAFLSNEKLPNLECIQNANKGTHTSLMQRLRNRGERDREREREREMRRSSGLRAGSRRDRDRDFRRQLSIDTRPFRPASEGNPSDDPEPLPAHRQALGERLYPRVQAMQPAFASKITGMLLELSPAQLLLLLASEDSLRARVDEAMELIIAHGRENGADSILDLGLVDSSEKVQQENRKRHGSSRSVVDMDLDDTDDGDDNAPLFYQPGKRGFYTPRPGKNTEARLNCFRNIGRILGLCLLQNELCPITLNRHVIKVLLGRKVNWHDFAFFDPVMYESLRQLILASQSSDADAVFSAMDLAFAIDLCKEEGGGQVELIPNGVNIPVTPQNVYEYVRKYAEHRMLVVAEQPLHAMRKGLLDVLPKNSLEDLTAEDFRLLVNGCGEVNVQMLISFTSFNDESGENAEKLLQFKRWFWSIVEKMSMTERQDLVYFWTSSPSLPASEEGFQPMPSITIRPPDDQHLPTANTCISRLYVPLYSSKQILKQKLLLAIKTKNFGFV

These targets were tested with COC(=O)C#Cc1ccccc1 [methyl 3-phenylpropiolate] (assay: log2 ratio of iodoacetamide-alkyne labeling of the cysteine site, DMSO over compound (competition); higher = stronger covalent engagement of the cysteine by the compound, active = 1 or more). Conditions: 500 µM; treatment time 1 h; system: HEK293T cell lysate.
How it was run: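 The log2 competition ratio per cysteine is defined as mean reporter intensity in control channels over mean reporter intensity in compound channels. Lysate from HEK293T cells (2 mg/mL) received electrophile (500 µM) or vehicle for 1 h at ambient temperature, followed by iodoacetamide alkyne for 1 h. Samples were clicked to sCIP-TMT reagents, pooled, trypsin-digested overnight at 37 °C, streptavidin-enriched, acid-eluted and run on Orbitrap Eclipse LC-MS/MS with FAIMS, with quantification in FragPipe. Three replicates with duplicate channels were used, and any cysteine quantified in only one replicate was excluded.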
For UniProt P07437_C127, the “log2 ratio of iodoacetamide-alkyne labeling” value (shortened to “log2 ratio”) was inactive: 0.228.
For PRPF6 C550 (UniProt O94906), the “log2 ratio” value was inactive: 0.0878.
RPLP0 C119 (UniProt P05388) was tested, and the “log2 ratio” value was inactive: 0.471.
In the case of HEXIM1 C84 (UniProt O94992), the “log2 ratio” value is reported as active: 1.3.
In the case of MYC C70 (UniProt P01106), the “log2 ratio” value is reported as inactive: 0.857.
With PAK4 C276 (UniProt O96013) the “log2 ratio” value was inactive: 0.284.
In the case of UBE4B C448 (UniProt O95155), the “log2 ratio” value is reported as inactive: 0.116.
UROD C308 (UniProt P06132) was tested, and the “log2 ratio” value was inactive: 0.28.
In the case of UniProt O94763_C420, the “log2 ratio” value is reported as inactive: 0.329.
With HERC2 C221 (UniProt O95714) the “log2 ratio” value was inactive: 0.123.
In the case of LMNA C522 (UniProt P02545), the “log2 ratio” value is reported as inactive: 0.111.
In the case of BAG3 C179 (UniProt O95817), the “log2 ratio” value is reported as inactive: 0.316.
With UniProt O94813_C907 the “log2 ratio” value was inactive: 0.637.
For UniProt O95071_C2267, the “log2 ratio” value was inactive: 0.736.
In the case of UniProt O95232_C40, the “log2 ratio” value is reported as inactive: -0.0395.
